Results are given in words; binding and its absence hold for the method and conditions named. In cells and extracts the contact can be indirect. Binding can be weak; no strength is given. Tags and fused reporters may be left off the sequences shown.
Experiments:
[1] = target: V5-CB1_(SH3-) (collybistin splice isoform CB1 without SH3 domain) (rat); experiment: co-IP; HEK-293T cells co-transfected with VSVG-Cdc42 and V5-CB1_(SH3-) or V5-CB2_(SH3-), with or without FLAG-gephyrin; lysate first depleted of free active Cdc42 with GST-PKB beads; IP with antibody against VSVG, WB for V5
[2] = target: V5-CB2_(SH3-) (collybistin splice isoform CB2 without SH3 domain) (rat); experiment: as above

- binding [1]: binds
- binding [2]: binds
B1: FLAG-gephyrin (protein, UniProt Q03555 1-768)
chain: MATEGMILTNHDHQIRVGVLTVSDSCFRNLAEDRSGINLKDLVQDPSLLGGTISAYKIVPDEIEEIKETLIDWCDEKELNLILTTGGTGFAPRDVTPEKFPTFPFCGLQKGATKEVIEREAPGMALAMLMGSLNVTPLGMLSRPVCGIRGKTLIINLPGSKKGSQECFQFILPALPHAIDLLRDAIVKVKEVHDELEDLPSPPPPLSPPPTTSPHKQTEDKGVQCEEEEEEKKDSGVASTEDSSSSHITAAALAAKIPDSIISRGVQVLPRDTASLSTTPSESPRAQATSRLSTASCPTPKQIRRPDESKGVASRVGSLKVQSRCSSKENILRASHSAVDITKVARRHRMSPFPLTSMDKAFITVLEMTPVLGTEIINYRDGMGRVLAQDVYAKDNLPPFPASVKDGYAVRAADGPGDRFIIGESQAGEQPTQTVMPGQVMRVTTGAPIPCGADAVVQVEDTELIRESDDGTEELEVRILVQARPGQDIRPIGHDIKRGECVLAKGTHMGPSEIGLLATVGVTEVEVNKFPVVAVMSTGNELLNPEDDLLPGKIRDSNRSTLLATIQEHGYPTINLGIVGDNPDDLLNALNEGISRADVIITSGGVSMGEKDYLKQVLDIDLHAQIHFGRVFMKPGLPTTFATLDIDGVRKIIFALPGNPVSAVVTCNLFVVPALRKMQGILDPRPTIIKARLSCDVKLDPRPEYHRCILTWHHQEPLPWAQSTGNQMSSRLMSMRSANGLLMLPPKTEQYVELHKGEVVDVMVIGRL
